The text below walks through data of PMC4672914.

The experiment has as its target GST-tagged EhC2PK (E. histolytica). Put plainly: pull-down; GST-tagged protein loaded on glutathione-Sepharose beads, recombinant EhCaBP1 added, in the presence and absence of Ca2+; 4°C, 10 mM Tris-Cl pH 7.5, 100 mM NaCl, 0.1% NP-40, 2 mM DTT; blot with anti-EhCaBP1; both purified.

Results are given in words; binding and its absence hold for the method and conditions named. A result given as binding can be weak or reduced; the word gives no strength.

B1: recombinant EhCaBP1 (protein, UniProt P38505 1-134)
chain: MAEALFKEIDVNGDGAVSYEEVKAFVSKKRAIKNEQLLQLIFKSIDADGNGEIDQNEFAKFYGSIQGQDLSDDKIGLKVLYKLMDVDGDGKLTKEEVTSFFKKHGIEKVAEQVMKADANGDGYITLEEFLEFSL
Take B1: the binding entry is “binds”.
